# Reference: US20200230126A1, “TARGETED THERAPEUTICS” (TARVEDA THERAPEUTICS, INC., priority 2017, published 2020)
# At least one read-out could not be matched to a standard name with certainty.
# Assays:
# Type in all cases: physicochemical
# [1] = Particulate formation in dosing solutions using 0.9% Sodium Chloride, 5% Mannitol and 5% Dextrose adjusted to the low USP pH limits, with rocking (appearance, pH, HPLC recovery)
# Description: A study was conducted with 0.6 mg/mL and 2.4 mg/mL solutions of SDC-TRAP-0063 Sodium using one of three diluents; 0.9% Sodium Chloride as a positive control, and 5% Dextrose and 5% Mannitol as potential new diluents (Table 2). Each diluent was prepared at the lower pH limit of USP to test a worst-case scenario for solubility (the starting pH was 4.5 for 0.9% Sodium Chloride and 5% Mannitol and 3.2 for 5% Dextrose). The SDC-TRAP-0063 Sodium dosing solutions were prepared in glass vials and then placed on a rocker. […]
# [2] = Solubility at various pH in 5% Mannitol (HCl addition, about 24 hours equilibration, 0.2 μm filtration)
# Description: (§1) Experiments were performed to assess the solubility of SDC-TRAP-0063 Sodium as a function of varying pH.
# [3] = Solubility at various pH in 0.9% Sodium Chloride (HCl addition, about 24 hours equilibration, 0.2 μm filtration); settings: 0.9% Saline
# Description: as §1
# [4] = Head-to-head in-use test, 0.9% Sodium Chloride dosing solution in IV bag and IV line with rocking
# Description: A head-to-head in-use test of the SDC-TRAP-0063 Sodium 0.9% Sodium Chloride and 5% Mannitol dosing solutions was conducted. This study was intended to directly compare the two based on the specific clinical use direction for each diluent. In this study, the respective IV bags, syringes and IV lines were subjected to a rocking motion during the hold periods to mimic a worst case scenario for agitation of the dosing solution.
# The 0.9% Sodium Chloride dosing solution was tested in an IV bag and IV line and at 0.6 mg/mL of SDC-TRAP-0063 Sodium as used in the clinic during the product complaint, with a designed 4 hour hold period followed by a 2-hour simulated infusion using a peristaltic pump (Table 5).
compound,measurement,setting,value
"CCc1c2c(nc3ccc(OC(=O)N4CCC(CCn5ccc6cc(-n7c(O)nnc7-c7cc(C(C)C)c(O)cc7O)ccc65)CC4)cc13)-c1cc([C@@](O)(CC)C(=O)[O-])c(CO)c(=O)n1C2.[Na+] [SDC-TRAP-0063 Sodium, Sodium (S)-2-(2-((4-(2-(5-(3-(2,4-dihydroxy-5-isopropylphenyl)-5-hydroxy-4H-1,2,4-triazol-4-yl)-1H-indol-1-yl)ethyl)piperidine-1-carbonyl)oxy)-12-ethyl-8-(hydroxymethyl)-9-oxo-9,11-dihydroindolizino[1,2-b]quinolin-7-yl)-2-hydroxybutanoate]",Recovery of SDC-TRAP-0063 Sodium (percent),"[1]; 0.9% Sodium Chloride, pH 4.5, 0.6 mg/mL, 0 hours",94.9%
same,Recovery of SDC-TRAP-0063 Sodium (percent),"[1]; 0.9% Sodium Chloride, pH 4.5, 0.6 mg/mL, 6 hours",24.8%
same,Recovery of SDC-TRAP-0063 Sodium (percent),"[1]; 0.9% Sodium Chloride, pH 4.5, 0.6 mg/mL, 24 hours",0.7%
same,Recovery of SDC-TRAP-0063 Sodium (percent),"[1]; 0.9% Sodium Chloride, pH 4.5, 2.4 mg/mL, 0 hours",99.9%
same,Recovery of SDC-TRAP-0063 Sodium (percent),"[1]; 0.9% Sodium Chloride, pH 4.5, 2.4 mg/mL, 6 hours",91.6%
same,Recovery of SDC-TRAP-0063 Sodium (percent),"[1]; 0.9% Sodium Chloride, pH 4.5, 2.4 mg/mL, 24 hours",93.4%
same,Recovery of SDC-TRAP-0063 Sodium (percent),"[1]; 5% Dextrose, pH 3.2, 0.6 mg/mL, 0 hours",100.7%
same,Recovery of SDC-TRAP-0063 Sodium (percent),"[1]; 5% Dextrose, pH 3.2, 0.6 mg/mL, 6 hours",20.5%
same,Recovery of SDC-TRAP-0063 Sodium (percent),"[1]; 5% Dextrose, pH 3.2, 2.4 mg/mL, 0 hours",98.8%
same,Recovery of SDC-TRAP-0063 Sodium (percent),"[1]; 5% Dextrose, pH 3.2, 2.4 mg/mL, 6 hours",103.3%
same,Recovery of SDC-TRAP-0063 Sodium (percent),"[1]; 5% Dextrose, pH 3.2, 2.4 mg/mL, 24 hours",97.0%
same,Recovery of SDC-TRAP-0063 Sodium (percent),"[1]; 5% Mannitol, pH 4.5, 0.6 mg/mL, 0 hours",99.1%
same,Recovery of SDC-TRAP-0063 Sodium (percent),"[1]; 5% Mannitol, pH 4.5, 0.6 mg/mL, 6 hours",62.8%
same,Recovery of SDC-TRAP-0063 Sodium (percent),"[1]; 5% Mannitol, pH 4.5, 2.4 mg/mL, 0 hours",100.3%
same,Recovery of SDC-TRAP-0063 Sodium (percent),"[1]; 5% Mannitol, pH 4.5, 2.4 mg/mL, 6 hours",99.4%
same,Recovery of SDC-TRAP-0063 Sodium (percent),"[1]; 5% Mannitol, pH 4.5, 2.4 mg/mL, 24 hours",99.8%
same,SDC-TRAP-0063 Sodium Recovery (Percent compared to initial concentration),"[2]; 0 molar percent HCl added, pH 10.1",101.7%
same,SDC-TRAP-0063 Sodium Recovery (Percent compared to initial concentration),"[2]; 10.5 molar percent HCl added, pH 9.9",98.2%
same,SDC-TRAP-0063 Sodium Recovery (Percent compared to initial concentration),"[2]; 18.2 molar percent HCl added, pH 9.9",101.7%
same,SDC-TRAP-0063 Sodium Recovery (Percent compared to initial concentration),"[2]; 33.1 molar percent HCl added, pH 9.1",91.6%
same,SDC-TRAP-0063 Sodium Recovery (Percent compared to initial concentration),"[2]; 35.5 molar percent HCl added, pH 9.4",93.5%
same,SDC-TRAP-0063 Sodium Recovery (Percent compared to initial concentration),"[3]; 0 molar percent HCl added, pH 9.9",100.5%
same,SDC-TRAP-0063 Sodium Recovery (Percent compared to initial concentration),"[3]; 8.1 molar percent HCl added, pH 9.6",107.7%
same,SDC-TRAP-0063 Sodium Recovery (Percent compared to initial concentration),"[3]; 14.4 molar percent HCl added, pH 9.1",78.1%
same,SDC-TRAP-0063 Sodium Recovery (Percent compared to initial concentration),"[3]; 33.1 molar percent HCl added, pH 8.7",86.7%
same,SDC-TRAP-0063 Sodium Recovery (Percent compared to initial concentration),"[3]; 35.5 molar percent HCl added, pH 8.7",64.1%
same,Average Recovery of 0.6 mg/mL SDC-TRAP-0063 Sodium siding solutions in Sodium Chloride,"[4]; Bulk solution, at termination of study",55.9%
same,Average Recovery of 0.6 mg/mL SDC-TRAP-0063 Sodium siding solutions in Sodium Chloride,"[4]; IV Administration set, 0 hours",36.7%
same,Average Recovery of 0.6 mg/mL SDC-TRAP-0063 Sodium siding solutions in Sodium Chloride,"[4]; IV bag, 0 hours",100%
same,Average Recovery of 0.6 mg/mL SDC-TRAP-0063 Sodium siding solutions in Sodium Chloride,"[4]; IV bag, 2 hours",97.5%
same,Average Recovery of 0.6 mg/mL SDC-TRAP-0063 Sodium siding solutions in Sodium Chloride,"[4]; IV bag, 4 hours",96.7%
